Results: the supplement of paper PMC9233669
Variants at the floor of the assay are shown more often than the library holds them.

Assays:
biotinyl-Trp-oxazolone = test: self-aminoacylation, catalytic enhancement (BWO) (fold over background); higher = more active; k-Seq, kA / k0A0; sequences stand for … in GGGAAUGGAUCCACAUCUACGAAUUC…UUCACUGCAGACUUGACGAAGCUG
In short: (§1)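 The uncatalyzed rate is the low-activity peak of a bimodal Gaussian fit, and catalytic enhancement is median kA divided by it. The kA values came from pseudo-first-order fits, with 1000 bootstraps, of per-sequence fraction reacted measured by streptavidin capture, triplicate qPCR and Illumina sequencing. Mutagenized RNA pools with a 21-nt variable region (0.43 μM) were reacted with each biotinyl-aminoacyl-oxazolone at 2–1250 μM in 50 μL HEPES/NaCl/KCl/MgCl2/CaCl2 buffer with 5% acetonitrile, pH 6.9–7.0, for 90 minutes at room temperature.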

biotinyl-Leu-oxazolone = test: self-aminoacylation, catalytic enhancement (BLO) (fold over background); higher = more active; k-Seq, kA / k0A0; sequences stand for … in GGGAAUGGAUCCACAUCUACGAAUUC…UUCACUGCAGACUUGACGAAGCUG
In short: as §1

biotinyl-Val-oxazolone = test: self-aminoacylation, catalytic enhancement (BVO) (fold over background); higher = more active; k-Seq, kA / k0A0; sequences stand for … in GGGAAUGGAUCCACAUCUACGAAUUC…UUCACUGCAGACUUGACGAAGCUG
In short: as §1

biotinyl-Ile-oxazolone = test: self-aminoacylation, catalytic enhancement (BIO) (fold over background); higher = more active; k-Seq, kA / k0A0; sequences stand for … in GGGAAUGGAUCCACAUCUACGAAUUC…UUCACUGCAGACUUGACGAAGCUG
In short: as §1

biotinyl-Met-oxazolone = test: self-aminoacylation, catalytic enhancement (BMO) (fold over background); higher = more active; k-Seq, kA / k0A0; sequences stand for … in GGGAAUGGAUCCACAUCUACGAAUUC…UUCACUGCAGACUUGACGAAGCUG
In short: as §1

biotinyl-Phe-oxazolone = test: self-aminoacylation, catalytic enhancement (BFO) (fold over background); higher = more active; k-Seq, kA / k0A0; sequences stand for … in GGGAAUGGAUCCACAUCUACGAAUUC…UUCACUGCAGACUUGACGAAGCUG
In short: as §1

| Sequence | self-aminoacylation (biotinyl-Trp-oxazolone) | self-aminoacylation (biotinyl-Leu-oxazolone) | self-aminoacylation (biotinyl-Val-oxazolone) | self-aminoacylation (biotinyl-Ile-oxazolone) | self-aminoacylation (biotinyl-Met-oxazolone) | self-aminoacylation (biotinyl-Phe-oxazolone) |
| --- | --- | --- | --- | --- | --- | --- |
| CUACACUUCAAGCAAUCGGGC [Fam1B.1 aminoacylation ribozyme variant] | 2.02 | 1.27 | 1.42 | 1.48 | 1.95 | 0.999 |
| CUACACUUCAAGCAAUCGUUC [Fam1B.1 aminoacylation ribozyme variant] | 0.833 | 0.624 | 0.762 | 0.713 | 0.535 | 1.04 |
| CUACACUUCAAGCCAUCGGUC [Fam1B.1 aminoacylation ribozyme variant] | 0.657 | 0.743 | 1.06 | 0.772 | 0.853 | 0.899 |
| CUACAUCAAAUAAUCGGUCUG [Fam1A.1 aminoacylation ribozyme variant] | 0.824 | 0.717 | 0.864 | 0.801 | 0.804 | 1.42 |
| CUACAUCAUACAAUCGGUCUG [Fam1A.1 aminoacylation ribozyme variant] | 0.708 | 0.499 | 0.863 | 0.752 | 0.631 | 0.643 |
| CUACAUCCAACAAUCGGUCUG [Fam1A.1 aminoacylation ribozyme variant] | 0.803 | 0.793 | 0.678 | 0.672 | 1.05 | 1.05 |
| CUACAUCUAACAAUCGGUCUG [Fam1A.1 aminoacylation ribozyme variant] | 0.4 | 0.49 | 0.799 | 0.626 | 0.758 | 0.731 |
| CUACCUCAAACAAUCCGUCUG [Fam1A.1 aminoacylation ribozyme variant] | 0.905 | 0.874 | 1.05 | 0.999 | 1.61 | 0.486 |
| CUACCUCAAACAAUCGGUCGG [Fam1A.1 aminoacylation ribozyme variant] | 1.78 | 1.55 | 1.25 | 1.28 | 1.5 | 1.56 |
| CUACCUCAAACAGUCGGUCUG [Fam1A.1 aminoacylation ribozyme variant] | 0.868 | 0.81 | 1.03 | 0.922 | 1.06 | 0.484 |
| CUACCUCAUACAAUCGGUCUG [Fam1A.1 aminoacylation ribozyme variant] | 0.673 | 0.63 | 0.752 | 0.875 | 0.967 | 1.25 |
| CUACGCCAAACAAUCGGUCUG [Fam1A.1 aminoacylation ribozyme variant] | 1.11 | 1.07 | 0.993 | 1.07 | 0.88 | 1.16 |
| CUACGGCAAACAAUCGGUCUG [Fam1A.1 aminoacylation ribozyme variant] | 0.61 | 0.754 | 0.871 | 0.664 | 0.594 | 0.725 |
| CUACGUCAAACAACCGGUCUG [Fam1A.1 aminoacylation ribozyme variant] | 1.56 | 1.71 | 1.41 | 1.31 | 1.45 | 1.46 |
| CUACGUCAAACAAGCGGUCUG [Fam1A.1 aminoacylation ribozyme variant] | 0.713 | 1.13 | 1.36 | 1.2 | 1.44 | 1.8 |
| CUACGUCAAACAAUCGGUCCG [Fam1A.1 aminoacylation ribozyme variant] | 1.03 | 1.56 | 1.33 | 1 | 1.53 | 0.649 |
| CUACGUCAAACAAUGGGUCUG [Fam1A.1 aminoacylation ribozyme variant] | 1.18 | 1.62 | 1.35 | 1.38 | 1.22 | 2.25 |
| CUACGUCAAACAUUCGGUCUG [Fam1A.1 aminoacylation ribozyme variant] | 3.07 | 2.5 | 3.79 | 2.87 | 2.93 | 12.8 |
| CUACGUCAAACCAUCGGUCUG [Fam1A.1 aminoacylation ribozyme variant] | 0.872 | 1.1 | 1.41 | 1.36 | 1.1 | 0.967 |
| CUACGUCAAAUAAUCGGUCUG [Fam1A.1 aminoacylation ribozyme variant] | 1.19 | 1.15 | 1.25 | 1.44 | 1.35 | 1.18 |
| CUACUACAAACAAUCGGUGUG [Fam1A.1 aminoacylation ribozyme variant] | 0.572 | 0.659 | 0.715 | 0.698 | 0.81 | 0.884 |
